The record followed here is patent publication US20120322691.

Protein sequences, listed by entry. Tags and fused reporters are not part of them. Lines headed by an entry give the natural chain unless they say otherwise; changes in a name come on top.
UniProt P00971: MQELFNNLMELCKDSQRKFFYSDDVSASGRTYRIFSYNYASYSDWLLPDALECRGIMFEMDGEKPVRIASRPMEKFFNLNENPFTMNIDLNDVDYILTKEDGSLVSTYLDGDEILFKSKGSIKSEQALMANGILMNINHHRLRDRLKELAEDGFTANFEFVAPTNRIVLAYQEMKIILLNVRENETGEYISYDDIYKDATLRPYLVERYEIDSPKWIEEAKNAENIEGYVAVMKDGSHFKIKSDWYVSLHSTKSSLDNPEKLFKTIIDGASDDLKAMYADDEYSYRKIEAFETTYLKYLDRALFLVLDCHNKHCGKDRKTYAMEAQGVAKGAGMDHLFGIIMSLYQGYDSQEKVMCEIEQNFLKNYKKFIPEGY

For part of these data: The comparison behind a weaker result is the experiment's own reference, which may not be listed here. For part of these data: For at least one entry, the source does not settle the construct or the ends of the probe.

Data set [1] concerns the target T4 RNA ligase 2, truncated (Rnl2) (Enterobacteria phage T4) (UniProt P32277). Briefly: activity assay. The settings on record: 3' adapter DNA with 5' rAPP and 3' ddC, gel-shift ligation assay, ATP-free buffer, purified recombinant protein, label: 5' 32P on RNA.
Data set [2] has as its target T4 RNA ligase 1 (Rnl1) (Enterobacteria phage T4) (UniProt P00971). Kind of data set: activity assay. The note with it: ligation to miR-106b from 293T small RNA; only adapter of 12 capturing it well; deep sequencing readout; ATP buffer; purified recombinant protein.

For the sequence “CGUACGGUUUAAACUUCGA / CTGTAGGCACCATCAAT [19-mer RNA marker + standard 3' adapter]”, in data set [1] (efficient ligation), the “activity on this sequence” value is “active”.

Consider “CGUACGGUUUAAACUUCGAAAUGU / CTGTAGGCACCATCAAT [24-mer RNA marker + standard 3' adapter]”, for which the “activity on this sequence” value in data set [1] (ligated product low in abundance, variant of 19-mer RNA marker + standard 3' adapter) is “less active”. For “ACACUCUUUCCCUACACGACGCUCUUCCGAUCAGCA [5' adapter ending AGCA]”, the “activity on this sequence” value in data set [2] is “active”.
